Laboratory results: paper doi:10.1101/2024.11.20.624400

Key:
[1] = molecular target: CathB6-GFP (CathB6 catalytic domain Arg61-Asn338 in pB7FWG2.0) (Myzus persicae); assay: FRET or BRET
[2] = molecular target: M. persicae CathB9 catalytic domain (Glu61-Thr338) in pDEST-GBKT7 (BD) (Myzus persicae); assay: two-hybrid
[3] = molecular target: CathB6^87-134 region (yeast two-hybrid fragment) (Myzus persicae); assay: two-hybrid
[4] = molecular target: M. persicae CathB3 catalytic domain (Lys61-Asn340) in pDEST-GBKT7 (BD) (Myzus persicae); assay: two-hybrid
[5] = molecular target: M. persicae CathB6 catalytic domain (Arg61-Asn338) in pDEST-GBKT7 (BD) (Myzus persicae); assay: two-hybrid
[6] = molecular target: M. persicae CathB6^C114D catalytic domain mutant in pDEST-GBKT7 (BD) (Myzus persicae); assay: two-hybrid
[7] = molecular target: CathB6-GFP (CathB6 catalytic domain Arg61-Asn338 in pB7FWG2.0) (Myzus persicae); assay: co-IP
[8] = molecular target: CathB6^C114D-GFP (catalytic cysteine mutant of the CathB6 catalytic domain in pB7FWG2.0) (Myzus persicae); assay: co-IP

B1: VCS-mCherry (processing body scaffolding protein Varicose) (protein, UniProt Q9LTT8 1-1344)
chain: MASSPGNTNPHNTPPFDLGILFKPSSNPYPPPAASYPPPTGPFLHNQYDQQHYAPPGISAQPSPVTQQQQDVSSSSAATNLHPQRTLSYPTPPLNLQSPRSNHNPGTHILALLNNTNNGAPVANQEPSHQLPVVNHNEIARSFPGGSGPIRVPSCKLPKGRRLIGEHAVYDVDVRLQGEIQPQLEVTPITKYGSDPQLVVGRQIAVNKVYICYGLKGGNIRVLNINTALRSLFRGHSQRVTDMAFFAEDVDMLASVSLDGKVFVWKISEGSEGEDQPQITGKIVLALQILGEEDTKHPRVCWHCHKQEILVVSIGKHVLRIDTTKVGRGEVFSAEAPLQCPLDKLIDGVQIVGKHDGEVTDLSMCQWMTTRLVSSSVDGTIKIWQDRKAQPLVVLRPHDGHPVSSATFVTSPERPDHIILITGGPLNREMKIWVSAGEEGWLLPADAESWRCTQTLDLKSSTEPRAEEAFFNQVIALSEAGLLLLANAKRNALYAVHLDYGSSPVGTRMDYLSEFTVTMPILSFIGTNDPPEEPIVKVYCVQTLAIQQYTLDLCLCLPPPIENMGLEKSDSSVSREANLVEGMSEPSGLKPTDLPSVDSVPKPSIIVNRSESANKLSFPSAEATSQAIVPPNGEPKTSGLPSQTSGAGSAYATLPQLPLSPRLSSKLSGYHTPVEAIEPVIPHHELGGKTPSADYSVDRQMDAVGERNLDVSSVEEISRSKDSNVTPDDDVSGMRSPSAFFKHPTHLVTPSEILMGVSSAEASITTEDRRDRDANIQDVNNDPRDTEVEVKEISEARSTQNGEINDHDETENCTSENREKVFCSQVSNLSTEMARDCYPSTEGTFIPGESKAYGQPIKAGDESGVDSRGGPAKLLKGKKQKAKNSQGPGLSSTSSNVANLADSFNEQSQSLSHPMTDLLPQLLAMQETMNQVMASQKEMQRQLSNAATGPIGKESKRLEVALGRMIEKSSKSNADALWARIQEETVKNEKALRDHAQQIVNATTNFMSKELNAMFEKTIKKELAAIGPALARSVVPVIEKTVSSAITESFQRGIGDKAVNQLDKSVNIKLEATVARQIQAQFQTSGKQALQEGLRSSVESSVIPSFEKACKAMFDQIDSAFQKGIAEHTNAAQQRFDSGHSQLAHTLKESITSASSVAQALSRELAETQRNLLALAAAGANSGGSNSLVTQLSGGPLGALLEKVEAPMDPTTELSRLISERKYEESFTSALQRSDVSIVSWLCSQVDLRGLLAMNPLPLSQGVLLSLLQQLACDISKDTSRKLAWMTDVVAAINPSDQMIAVHARPIFEQVYQILHHHRNAPGSDVSAIRLIMHVINSMLMGCK
**Q.** How did the binding [1] turn out when B1 was run?
**A.** no binding

B2: A. thaliana EDS1, full length, in pDEST-GADT7 (AD) (protein, UniProt Q9SU72 1-623)
chain: MAFEALTGINGDLITRSWSASKQAYLTERYHKEEAGAVVIFAFQPSFSEKDFFDPDNKSSFGEIKLNRVQFPCMRKIGKGDVATVNEAFLKNLEAIIDPRTSFQASVEMAVRSRKQIVFTGHSSGGATAILATVWYLEKYFIRNPNVYLEPRCVTFGAPLVGDSIFSHALGREKWSRFFVNFVSRFDIVPRIMLARKASVEETLPHVLAQLDPRKSSVQESEQRITEFYTRVMRDTSTVANQAVCELTGSAEAFLETLSSFLELSPYRPAGTFVFSTEKRLVAVNNSDAILQMLFYTSQASDEQEWSLIPFRSIRDHHSYEELVQSMGKKLFNHLDGENSIESTLNDLGVSTRGRQYVQAALEEEKKRVENQKKIIQVIEQERFLKKLAWIEDEYKPKCQAHKNGYYDSFKVSNEENDFKANVKRAELAGVFDEVLGLMKKCQLPDEFEGDIDWIKLATRYRRLVEPLDIANYHRHLKNEDTGPYMKRGRPTRYIYAQRGYEHYILKPNGMIAEDVFWNKVNGLNLGLQLEEIQETLKNSGSECGSCFWAEVEELKGKPYEEVEVRVKTLEGMLGEWITDGEVDDKEIFLEGSTFRKWWITLPKNHKSHSPLRDYMMDEITDT
**Q.** What does the source list for B2?
**A.** binding [2]: no binding; binding [3]: binds; binding [4]: binds; binding [5]: binds; binding [6]: binds

B3: EDS1-mCherry (protein, UniProt Q9SU72 1-623)
chain: MAFEALTGINGDLITRSWSASKQAYLTERYHKEEAGAVVIFAFQPSFSEKDFFDPDNKSSFGEIKLNRVQFPCMRKIGKGDVATVNEAFLKNLEAIIDPRTSFQASVEMAVRSRKQIVFTGHSSGGATAILATVWYLEKYFIRNPNVYLEPRCVTFGAPLVGDSIFSHALGREKWSRFFVNFVSRFDIVPRIMLARKASVEETLPHVLAQLDPRKSSVQESEQRITEFYTRVMRDTSTVANQAVCELTGSAEAFLETLSSFLELSPYRPAGTFVFSTEKRLVAVNNSDAILQMLFYTSQASDEQEWSLIPFRSIRDHHSYEELVQSMGKKLFNHLDGENSIESTLNDLGVSTRGRQYVQAALEEEKKRVENQKKIIQVIEQERFLKKLAWIEDEYKPKCQAHKNGYYDSFKVSNEENDFKANVKRAELAGVFDEVLGLMKKCQLPDEFEGDIDWIKLATRYRRLVEPLDIANYHRHLKNEDTGPYMKRGRPTRYIYAQRGYEHYILKPNGMIAEDVFWNKVNGLNLGLQLEEIQETLKNSGSECGSCFWAEVEELKGKPYEEVEVRVKTLEGMLGEWITDGEVDDKEIFLEGSTFRKWWITLPKNHKSHSPLRDYMMDEITDT
**Q.** B3 was tested. Which binding [1] did it give?
**A.** binds

B4: HA-EDS1 (full-length A. thaliana EDS1 with 3xHA, pB7WG2.0) (protein, UniProt Q9SU72 1-623)
chain: MAFEALTGINGDLITRSWSASKQAYLTERYHKEEAGAVVIFAFQPSFSEKDFFDPDNKSSFGEIKLNRVQFPCMRKIGKGDVATVNEAFLKNLEAIIDPRTSFQASVEMAVRSRKQIVFTGHSSGGATAILATVWYLEKYFIRNPNVYLEPRCVTFGAPLVGDSIFSHALGREKWSRFFVNFVSRFDIVPRIMLARKASVEETLPHVLAQLDPRKSSVQESEQRITEFYTRVMRDTSTVANQAVCELTGSAEAFLETLSSFLELSPYRPAGTFVFSTEKRLVAVNNSDAILQMLFYTSQASDEQEWSLIPFRSIRDHHSYEELVQSMGKKLFNHLDGENSIESTLNDLGVSTRGRQYVQAALEEEKKRVENQKKIIQVIEQERFLKKLAWIEDEYKPKCQAHKNGYYDSFKVSNEENDFKANVKRAELAGVFDEVLGLMKKCQLPDEFEGDIDWIKLATRYRRLVEPLDIANYHRHLKNEDTGPYMKRGRPTRYIYAQRGYEHYILKPNGMIAEDVFWNKVNGLNLGLQLEEIQETLKNSGSECGSCFWAEVEELKGKPYEEVEVRVKTLEGMLGEWITDGEVDDKEIFLEGSTFRKWWITLPKNHKSHSPLRDYMMDEITDT
**Q.** Which results are given for B4?
**A.** binding [7]: binds; binding [8]: binds

B5: A. thaliana PAD4, full length, in pDEST-GADT7 (AD) (protein, UniProt Q9S745 1-541)
chain: MDDCRFETSELQASVMISTPLFTDSWSSCNTANCNGSIKIHDIAGITYVAIPAVSMIQLGNLVGLPVTGDVLFPGLSSDEPLPMVDAAILKLFLQLKIKEGLELELLGKKLVVITGHSTGGALAAFTALWLLSQSSPPSFRVFCITFGSPLLGNQSLSTSISRSRLAHNFCHVVSIHDLVPRSSNEQFWPFGTYLFCSDKGGVCLDNAGSVRLMFNILNTTATQNTEEHQRYGHYVFTLSHMFLKSRSFLGGSIPDNSYQAGVALAVEALGFSNDDTSGVLVKECIETATRIVRAPILRSAELANELASVLPARLEIQWYKDRCDASEEQLGYYDFFKRYSLKRDFKVNMSRIRLAKFWDTVIKMVETNELPFDFHLGKKWIYASQFYQLLAEPLDIANFYKNRDIKTGGHYLEGNRPKRYEVIDKWQKGVKVPEECVRSRYASTTQDTCFWAKLEQAKEWLDEARKESSDPQRRSLLREKIVPFESYANTLVTKKEVSLDVKAKNSSYSVWEANLKEFKCKMGYENEIEMVVDESDAMET
**Q.** What does the source list for B5?
**A.** binding [2]: no binding; binding [4]: no binding; binding [5]: no binding; binding [6]: no binding

B6: A. thaliana SAG101, full length, in pDEST-GADT7 (AD) (protein, UniProt Q4F883 1-537)
chain: MESSSSLKGSALGKLVVTSGLLHSSWSKILEIHNPPYSNHDPGLQVSKKKKDSGLEFQIHREEKFTLVVFSAPPICRSSSSDSTLLHVKDKENPFPFLCSENNPSFSLHTPAFNLFTSASTSLTYLKSELLQTLKSEKPVIITGAALGGSVASLYTLWLLETIEPTLKRPLCITFGSPLIGDASLQQILENSVRNSCFLHVVSAQTRIKMDFFKPFGTFLICFDSGCVCIEDHVAVTELLNGVHDSGLVDYSQVLNRLDQSMLSLADSRLIPEDVIKGIEKRAEMKNLRFDMMFKKLNDMKISMAYIEWYKKKCKEVKIGYYDRFKTQLAFPSKEFDINIKNHHKSELNRFWKSVVEEVERRPQSDASILKRRFLFSGNNYRRMIEPLDIAEYYLEGRKEYRTTGRSHHYVMLEKWFGMESILIEKERCKKRDLSDLLTFDSCFWAEVEDSLIVINQLNTTVGMRDDVREVLTRKLVEFEGYVWEIITKREVSPEIFLEESSFMKWWKEYKKIKGFNSSYLTEFMNTRKYESYGKSQ
**Q.** What does the source list for B6?
**A.** binding [2]: no binding; binding [4]: no binding; binding [5]: no binding; binding [6]: no binding

Results are given in words; binding and its absence hold for the method and conditions named. For some assays here: Binding can be weak; no strength is given. For some assays here: Sequences can lack the tags named with a protein. For some assays here: Binding seen in cells or lysates may run through a third protein.
